Construct, isoform or probe ends are uncertain for at least one entry.
Columns and labels:
[1] = test system: Type I collagen (Rattus norvegicus); experiment: binding assay; settings: purified native protein, protein details: rat tail tendon, Corning
Type II collagen = experiment: binding assay; settings: turbidity at 400 nm; fibers form slower than with collagen I; purified native protein; single-stranded DNA

TAATGAGAAGTATGTGTAGAGTCAATGAGATACGCAATTGGGAAGACAAGAGTATTGACTCGGACTGAGTACAATCGTCCTAATGAGAAGTATGTGTAGAGTCAATGAGATACGCAATTGGGAAGACAAGAGTATTGACTCGGACTGAGTACAATCGTCC [random ssDNA divalent assembly]
binding result ([1]; (PEG)6 linker joining the two copies, fibers formed at 30% vol collagen, single-stranded …, variant of random ssDNA oligomer monovalent 80 nt): binds

GATGTGAGTGTGTGACGAGCTACGACGTCTGGTGTAATTTATAAAGACACTGTGTATATCAACAACAGAACAAGGAAAGGGATGTGAGTGTGTGACGAGCTACGACGTCTGGTGTAATTTATAAAGACACTGTGTATATCAACAACAGAACAAGGAAAGG [VEGF-R2 aptamer divalent assembly]
binding result ([1]; (PEG)6 linker joining the two copies 3'-3', fibers and large macroscopic aggregates, single-stranded DNA, variant of VEGF-R2 aptamer monovalent): binds

GATGTGAGTGTGTGACGAGCTACGACGTCTGGTGTAATTTATAAAGACACTGTGTATATCAACAACAGAACAAGGAAAGG [VEGF-R2 aptamer monovalent]
binding result (Type II collagen): binds
